Source: publication PMC11667809
No constants are given. Whether binding was seen depends on the method and setting. In cells and extracts the contact can be indirect. Some results given as binding are weak or reduced against the parent protein; the word gives no strength.

Amino acid sequences for entries named in this document (tags omitted).
UniProt P25440: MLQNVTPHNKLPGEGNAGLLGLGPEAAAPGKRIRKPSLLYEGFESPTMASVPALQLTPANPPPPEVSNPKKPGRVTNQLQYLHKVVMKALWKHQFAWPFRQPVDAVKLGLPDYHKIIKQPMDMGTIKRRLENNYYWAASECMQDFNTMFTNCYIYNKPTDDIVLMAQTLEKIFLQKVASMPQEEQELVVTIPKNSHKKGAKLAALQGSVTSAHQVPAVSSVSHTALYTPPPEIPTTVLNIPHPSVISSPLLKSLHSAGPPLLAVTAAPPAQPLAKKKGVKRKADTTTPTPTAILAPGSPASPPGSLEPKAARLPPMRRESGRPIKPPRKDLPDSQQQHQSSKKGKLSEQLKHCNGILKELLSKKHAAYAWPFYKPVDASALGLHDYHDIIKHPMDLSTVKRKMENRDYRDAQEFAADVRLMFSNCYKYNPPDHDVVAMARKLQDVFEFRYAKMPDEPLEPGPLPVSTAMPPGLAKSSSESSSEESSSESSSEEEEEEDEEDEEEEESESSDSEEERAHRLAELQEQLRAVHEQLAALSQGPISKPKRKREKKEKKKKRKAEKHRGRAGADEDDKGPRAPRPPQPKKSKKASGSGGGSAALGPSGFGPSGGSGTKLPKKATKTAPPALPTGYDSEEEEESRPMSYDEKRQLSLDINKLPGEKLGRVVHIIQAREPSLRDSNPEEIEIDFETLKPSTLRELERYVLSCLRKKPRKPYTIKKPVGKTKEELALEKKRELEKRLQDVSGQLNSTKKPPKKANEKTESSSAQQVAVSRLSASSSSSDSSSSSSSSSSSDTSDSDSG
UniProt P98177: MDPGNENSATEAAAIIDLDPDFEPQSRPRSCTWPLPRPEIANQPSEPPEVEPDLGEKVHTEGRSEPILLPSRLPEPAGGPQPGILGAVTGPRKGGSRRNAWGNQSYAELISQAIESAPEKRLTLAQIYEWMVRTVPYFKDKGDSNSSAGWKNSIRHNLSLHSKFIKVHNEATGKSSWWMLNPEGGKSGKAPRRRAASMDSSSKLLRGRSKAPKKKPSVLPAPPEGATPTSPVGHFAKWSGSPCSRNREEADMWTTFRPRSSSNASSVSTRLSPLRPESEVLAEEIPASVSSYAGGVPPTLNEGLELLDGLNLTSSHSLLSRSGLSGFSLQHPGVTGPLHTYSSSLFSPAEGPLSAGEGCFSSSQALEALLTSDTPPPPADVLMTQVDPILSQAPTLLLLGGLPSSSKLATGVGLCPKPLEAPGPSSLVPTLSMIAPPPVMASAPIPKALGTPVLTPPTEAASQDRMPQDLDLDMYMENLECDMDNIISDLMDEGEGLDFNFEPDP

Molecular target: Bromodomain-containing protein 2 (human) (UniProt P25440)
Test: co-IP; IP analysis of BRD2 and FOXO4 (Fig. 6C); cells and conditions not told

Q: Which binding does the source give for “FOXO4 wild-type (from UniProt P98177 1-505)” here?
A: binds
